This passage reports binding results from paper PMC6237423.

Chains of the proteins cited; added tags and fusions are not shown.
UniProt P09874: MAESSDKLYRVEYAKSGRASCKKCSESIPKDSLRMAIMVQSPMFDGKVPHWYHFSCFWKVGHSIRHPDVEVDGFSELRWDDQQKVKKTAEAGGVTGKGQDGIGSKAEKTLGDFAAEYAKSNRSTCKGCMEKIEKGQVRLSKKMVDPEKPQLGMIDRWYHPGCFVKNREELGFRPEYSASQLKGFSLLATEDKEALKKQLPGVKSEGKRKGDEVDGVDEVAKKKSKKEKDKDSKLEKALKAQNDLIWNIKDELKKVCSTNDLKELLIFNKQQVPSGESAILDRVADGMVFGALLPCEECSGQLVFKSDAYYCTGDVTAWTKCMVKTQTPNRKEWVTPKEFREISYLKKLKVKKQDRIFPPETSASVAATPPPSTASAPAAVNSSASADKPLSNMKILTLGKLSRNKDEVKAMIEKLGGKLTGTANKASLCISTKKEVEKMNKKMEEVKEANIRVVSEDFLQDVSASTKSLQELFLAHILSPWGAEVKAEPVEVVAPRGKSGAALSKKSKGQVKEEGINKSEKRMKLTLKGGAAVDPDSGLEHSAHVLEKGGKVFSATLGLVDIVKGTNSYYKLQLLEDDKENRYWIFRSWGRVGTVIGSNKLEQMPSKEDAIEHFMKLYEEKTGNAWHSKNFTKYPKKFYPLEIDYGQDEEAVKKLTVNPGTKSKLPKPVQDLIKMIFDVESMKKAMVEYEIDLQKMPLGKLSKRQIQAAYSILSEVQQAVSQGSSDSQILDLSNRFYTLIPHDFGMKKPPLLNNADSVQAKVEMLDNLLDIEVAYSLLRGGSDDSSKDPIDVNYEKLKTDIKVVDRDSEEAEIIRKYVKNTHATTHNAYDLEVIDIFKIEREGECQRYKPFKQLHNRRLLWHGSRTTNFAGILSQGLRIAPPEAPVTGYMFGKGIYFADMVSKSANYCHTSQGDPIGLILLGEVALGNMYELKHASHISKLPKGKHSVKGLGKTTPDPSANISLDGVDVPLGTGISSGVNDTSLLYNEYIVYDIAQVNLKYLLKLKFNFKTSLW
UniProt Q16665: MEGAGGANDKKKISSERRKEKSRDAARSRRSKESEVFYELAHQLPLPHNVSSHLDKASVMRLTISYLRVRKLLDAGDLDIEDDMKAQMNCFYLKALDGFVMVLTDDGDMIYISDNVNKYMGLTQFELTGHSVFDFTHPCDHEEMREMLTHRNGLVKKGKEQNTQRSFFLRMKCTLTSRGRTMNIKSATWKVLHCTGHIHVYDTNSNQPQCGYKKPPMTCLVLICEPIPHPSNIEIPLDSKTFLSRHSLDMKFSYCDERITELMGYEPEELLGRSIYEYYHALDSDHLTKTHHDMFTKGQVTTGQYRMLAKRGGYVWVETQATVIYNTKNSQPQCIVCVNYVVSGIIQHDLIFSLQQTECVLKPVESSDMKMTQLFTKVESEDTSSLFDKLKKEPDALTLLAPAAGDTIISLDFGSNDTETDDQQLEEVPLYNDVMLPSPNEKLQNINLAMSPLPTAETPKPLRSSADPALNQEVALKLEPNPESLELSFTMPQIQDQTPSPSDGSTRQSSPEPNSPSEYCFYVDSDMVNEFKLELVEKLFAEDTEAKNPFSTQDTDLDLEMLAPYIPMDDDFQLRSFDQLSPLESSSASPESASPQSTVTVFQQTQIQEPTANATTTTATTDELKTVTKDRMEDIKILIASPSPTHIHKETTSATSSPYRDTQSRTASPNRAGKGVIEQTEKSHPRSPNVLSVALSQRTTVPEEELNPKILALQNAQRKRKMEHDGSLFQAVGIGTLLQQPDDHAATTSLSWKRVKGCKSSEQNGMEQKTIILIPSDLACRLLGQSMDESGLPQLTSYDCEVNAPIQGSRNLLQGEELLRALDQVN

For the test, the target named is Poly(ADP-ribose) polymerase 1 (human (endogenous in DG75)) (UniProt P09874). The test can be described thus: co-IP; DG75 cells, LMP1- and LMP1+ (interaction increased around 40% in LMP1+), 5x10^6 cells in RIPA buffer; supernatant with 5 ug PARP1 antibody (IgG as control) overnight at 4°C, Protein A/G magnetic beads, three washes with RIPA; western blot for HIF-1α. (In general: A western blot detects proteins with antibodies after separation by electrophoresis.)

No constants are given. Whether binding was seen depends on the method and setting. Binding seen in cells or lysates may run through a third protein. Some binding calls cover weakened binding; strength is not graded here.

Turning to “hypoxia-inducible factor 1-alpha (from UniProt Q16665 1-826)”, the binding entry is listed as “binds”.
